The target of the assay is OsASN2-GFP fusion protein (rice) (UniProt Q43011). Kind of assay: affinity purification with mass spectrometry; soluble protein extract of 35S:OsASN2-GFP transgenic rice plants incubated with anti-GFP beads; 35S:GFP plants as control; eluate analysed by LC-MS/MS.

Protein sequences, listed by entry. Tags and fused reporters are not part of them. Lines headed by an entry give the natural chain unless they say otherwise; changes in a name come on top.
UniProt Q43011: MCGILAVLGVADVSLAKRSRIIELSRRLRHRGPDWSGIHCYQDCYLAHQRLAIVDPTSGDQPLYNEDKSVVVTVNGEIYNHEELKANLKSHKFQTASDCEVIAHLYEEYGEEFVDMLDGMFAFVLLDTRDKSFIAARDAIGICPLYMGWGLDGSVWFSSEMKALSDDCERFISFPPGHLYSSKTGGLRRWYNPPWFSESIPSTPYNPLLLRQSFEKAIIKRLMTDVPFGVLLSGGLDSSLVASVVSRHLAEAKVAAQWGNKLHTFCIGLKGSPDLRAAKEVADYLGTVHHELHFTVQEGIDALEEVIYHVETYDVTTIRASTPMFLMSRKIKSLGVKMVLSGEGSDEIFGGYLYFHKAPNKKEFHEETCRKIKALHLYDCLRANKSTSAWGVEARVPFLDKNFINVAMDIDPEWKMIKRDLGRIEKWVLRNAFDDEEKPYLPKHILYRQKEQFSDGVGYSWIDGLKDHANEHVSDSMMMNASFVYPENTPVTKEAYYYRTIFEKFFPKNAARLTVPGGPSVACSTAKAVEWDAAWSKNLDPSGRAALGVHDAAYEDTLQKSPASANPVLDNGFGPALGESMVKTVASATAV

The values below come from publication PMC12251889.

Results are given in words; binding and its absence hold for the method and conditions named. In cells and extracts the contact can be indirect. A yes stands for co-enrichment or nearness to the bait. Other partners may have been found.

B1: pyruvate phosphate dikinase OsPPDKB (enzyme, UniProt Q6AVA8 72-947)
chain: TTKKRVFHFGKGKSEGNKAMKDLLGGKGANLAEMASIGLSVPPGFTVSTEACQQYQAAGKTLPAGLWEEIVEGLQWVEEYMAARLGDPARPLLLSVRSGAAVSMPGMMDTVLNLGLNDEVAAGLAAKSGDRFAYDSYRRFLDMFGNVVMDIPHALFEEKLEAMKAVKGLHNDTDLTATDLKELVAQYKDVYVEAKGEPFPSDPKKQLQLAVLAVFNSWDSPRAIKYRSINKITGLKGTAVNVQTMVFGNMGNTSGTGVLFTRNPSTGEKKLYGEFLVNAQGEDVVAGIRTPEDLDAMRDHMPEPYEELVENCKILESHYKEMMDIEFTVQENRLWMLQCRTGKRTGKGAVKIAVDMVNEGLVERRTALKMVEPGHLDQLLHPQFENPSGYKDKVIATGLPASPGAAVGQIVFTAEDAEAWHAQGKDVILVRTETSPEDVGGMHAAVGILTARGGMTSHAAVVARGWGKCCVSGCSSVRVNDASKIVVIEDKALHEGEWLSLNGSTGEVIIGKQPLCPPALSGDLETFMSWVDEVRKLKVMANADTPEDATTARQNGAEGIGLCRTEHMFFASDERIKAVRQMIMASSLELRQKALDRLLPYQRSDFEGIFRAMDGLPVTIRLLDPPLHEFLPEGHVEDMVRELCSETGAAQDDVLARVEKLSEVNPMLGFRGCRLGISYPELTEMQARAIFEAAITMTNQGIQVFPEIMVPLVGTPQELGHQVDVIRQIANKVFTDMGKTIGYKVGTMIEIPRAALVADEIAEQAEFFSFGTNDLTQMTFGYSRDDVGKFLPIYLSQGILQHDPFEVLDQRGVGELVKLATERGRKARPNLKVGICGEHGGEPLSVAFFAKAGLDYVSCSPFRVPIARLAAAQVLL
Consider B1, for which the binding result is on record as “binds”.
